From patent publication US20170283864 come the findings set out here.

In this data set the test system is Vibhar transposase. The data set can be described thus: activity assay. The following applies: 5' phosphate on second strand (SEQ 2); transposase loaded with adapter (225 mM KCl, 9.4% glycerol, 1 mM EDTA, 2 mM DTT, 25 C 4 h then 4 C 3 days) tagmented human genomic DNA; purified recombinant protein; protein details: Tn5-like transposase, 3.07 mg/ml in loading mix.

Construct, isoform or probe ends are uncertain for at least one entry.

Consider “AAGAACCAGGCTTGTCCTCATAGATCGCACTTGTGATCAAGAGACAG / CTGTCTCTTGATCACAAGTTAAGGCGATTTCTCAAGGCAATGGGACT [Y adapter with Vibhar transposase recognition end]”, for which the “activity on this sequence” value is on record as “active”.
